Assay results taken from publication PMC6488640.
These are yes or no findings as the source states them, for the method shown. In cells and extracts the contact can be indirect. Some entries that bind do so weakly or less than the wild type.

Sequences of proteins named here, by UniProt entry; tags and fusion partners are left off. A change or cut given only in a name is not applied to a line headed by its entry.
UniProt Q13309: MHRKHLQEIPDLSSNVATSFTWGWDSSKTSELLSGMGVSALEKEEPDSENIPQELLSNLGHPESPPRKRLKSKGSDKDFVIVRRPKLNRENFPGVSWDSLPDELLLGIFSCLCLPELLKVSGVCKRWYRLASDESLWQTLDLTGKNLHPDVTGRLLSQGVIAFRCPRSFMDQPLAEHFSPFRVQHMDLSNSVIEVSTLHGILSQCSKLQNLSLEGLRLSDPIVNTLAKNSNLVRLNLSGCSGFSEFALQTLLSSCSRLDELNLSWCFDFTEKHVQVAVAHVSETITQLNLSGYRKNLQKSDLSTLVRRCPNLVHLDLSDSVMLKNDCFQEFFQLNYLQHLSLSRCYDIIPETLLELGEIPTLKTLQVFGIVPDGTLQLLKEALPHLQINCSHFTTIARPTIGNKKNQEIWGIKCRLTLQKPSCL
UniProt Q93009: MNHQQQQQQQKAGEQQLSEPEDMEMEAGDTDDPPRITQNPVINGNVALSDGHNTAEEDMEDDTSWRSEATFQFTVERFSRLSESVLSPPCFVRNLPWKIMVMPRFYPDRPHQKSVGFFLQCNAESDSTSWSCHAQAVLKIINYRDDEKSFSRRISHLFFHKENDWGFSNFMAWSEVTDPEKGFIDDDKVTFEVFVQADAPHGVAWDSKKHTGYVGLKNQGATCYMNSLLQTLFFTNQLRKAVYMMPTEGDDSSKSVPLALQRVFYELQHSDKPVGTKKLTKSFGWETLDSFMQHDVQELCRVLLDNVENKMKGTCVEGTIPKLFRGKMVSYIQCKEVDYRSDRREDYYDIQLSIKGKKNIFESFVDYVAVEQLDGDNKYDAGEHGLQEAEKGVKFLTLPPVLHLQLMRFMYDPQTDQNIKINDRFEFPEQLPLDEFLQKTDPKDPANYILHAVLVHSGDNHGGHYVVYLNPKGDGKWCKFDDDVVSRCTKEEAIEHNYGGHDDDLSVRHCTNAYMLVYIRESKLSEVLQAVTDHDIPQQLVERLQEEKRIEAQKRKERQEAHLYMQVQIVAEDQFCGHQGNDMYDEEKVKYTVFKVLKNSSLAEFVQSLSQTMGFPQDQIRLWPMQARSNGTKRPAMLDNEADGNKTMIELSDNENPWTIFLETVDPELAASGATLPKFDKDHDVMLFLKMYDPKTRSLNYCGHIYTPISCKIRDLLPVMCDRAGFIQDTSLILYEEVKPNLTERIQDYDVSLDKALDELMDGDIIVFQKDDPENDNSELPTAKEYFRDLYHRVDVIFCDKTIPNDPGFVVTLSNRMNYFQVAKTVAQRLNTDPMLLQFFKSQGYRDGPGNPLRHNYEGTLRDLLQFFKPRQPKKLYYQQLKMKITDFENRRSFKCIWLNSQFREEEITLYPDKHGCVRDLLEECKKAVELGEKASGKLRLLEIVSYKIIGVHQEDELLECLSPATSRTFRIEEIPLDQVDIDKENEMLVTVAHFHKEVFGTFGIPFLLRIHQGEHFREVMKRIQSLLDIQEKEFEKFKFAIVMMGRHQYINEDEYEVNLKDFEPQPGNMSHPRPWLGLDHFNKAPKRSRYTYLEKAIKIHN

Biological target: S-phase kinase-associated protein 2 (SKP2), endogenous (human (endogenous in KBM5 and KBM5-T315I)) (UniProt Q13309)
Assay: co-IP; screen of endogenous SKP2 against a panel of DUBs in KBM5-T315I cell extract; proteins interacting with SKP2 detected by western blot; antibody coupled to Dynabeads, 4 °C 1-2 h, washed with PBS-T

**Q.** “USP7, endogenous (from UniProt Q93009 1-1102) (enzyme)” was tested. Which binding did it give?
**A.** binds

B1: USP13, endogenous (enzyme, UniProt Q92995 1-863)
chain: MQRRGALFGMPGGSGGRKMAAGDIGELLVPHMPTIRVPRSGDRVYKNECAFSYDSPNSEGGLYVCMNTFLAFGREHVERHFRKTGQSVYMHLKRHVREKVRGASGGALPKRRNSKIFLDLDTDDDLNSDDYEYEDEAKLVIFPDHYEIALPNIEELPALVTIACDAVLSSKSPYRKQDPDTWENELPVSKYANNLTQLDNGVRIPPSGWKCARCDLRENLWLNLTDGSVLCGKWFFDSSGGNGHALEHYRDMGYPLAVKLGTITPDGADVYSFQEEEPVLDPHLAKHLAHFGIDMLHMHGTENGLQDNDIKLRVSEWEVIQESGTKLKPMYGPGYTGLKNLGNSCYLSSVMQAIFSIPEFQRAYVGNLPRIFDYSPLDPTQDFNTQMTKLGHGLLSGQYSKPPVKSELIEQVMKEEHKPQQNGISPRMFKAFVSKSHPEFSSNRQQDAQEFFLHLVNLVERNRIGSENPSDVFRFLVEERIQCCQTRKVRYTERVDYLMQLPVAMEAATNKDELIAYELTRREAEANRRPLPELVRAKIPFSACLQAFSEPENVDDFWSSALQAKSAGVKTSRFASFPEYLVVQIKKFTFGLDWVPKKFDVSIDMPDLLDINHLRARGLQPGEEELPDISPPIVIPDDSKDRLMNQLIDPSDIDESSVMQLAEMGFPLEACRKAVYFTGNMGAEVAFNWIIVHMEEPDFAEPLTMPGYGGAASAGASVFGASGLDNQPPEEIVAIITSMGFQRNQAIQALRATNNNLERALDWIFSHPEFEEDSDFVIEMENNANANIISEAKPEGPRVKDGSGTYELFAFISHMGTSTMSGHYICHIKKEGRWVIYNDHKVCASERPPKDLGYMYFYRRIPS
**Q.** For B1, which binding is on record?
**A.** binds
